Test [1] has as its target PABPC4-GST (UniProt Q6PHQ9). In words: pull-down; PABPC4-GST or GST from E. coli lysate bound to glutathione agarose resin (batch method, 16 h, 4 °C), washed four times, incubated 16 h at 4 °C with Hek293T lysate containing the FLAG-tagged protein (NP-40 lysis buffer: 50 mM Tris-HCl pH 8.0, 150 mM NaCl, 1% NP-40); eluted with 10 mM reduced glutathione; anti-FLAG Western blot; only the target purified. (In general: Immunoblotting shows a protein as a band on a membrane.)

Protein sequences, listed by entry. Tags and fused reporters are not part of them. Lines headed by an entry give the natural chain unless they say otherwise; changes in a name come on top.
UniProt Q6PHQ9: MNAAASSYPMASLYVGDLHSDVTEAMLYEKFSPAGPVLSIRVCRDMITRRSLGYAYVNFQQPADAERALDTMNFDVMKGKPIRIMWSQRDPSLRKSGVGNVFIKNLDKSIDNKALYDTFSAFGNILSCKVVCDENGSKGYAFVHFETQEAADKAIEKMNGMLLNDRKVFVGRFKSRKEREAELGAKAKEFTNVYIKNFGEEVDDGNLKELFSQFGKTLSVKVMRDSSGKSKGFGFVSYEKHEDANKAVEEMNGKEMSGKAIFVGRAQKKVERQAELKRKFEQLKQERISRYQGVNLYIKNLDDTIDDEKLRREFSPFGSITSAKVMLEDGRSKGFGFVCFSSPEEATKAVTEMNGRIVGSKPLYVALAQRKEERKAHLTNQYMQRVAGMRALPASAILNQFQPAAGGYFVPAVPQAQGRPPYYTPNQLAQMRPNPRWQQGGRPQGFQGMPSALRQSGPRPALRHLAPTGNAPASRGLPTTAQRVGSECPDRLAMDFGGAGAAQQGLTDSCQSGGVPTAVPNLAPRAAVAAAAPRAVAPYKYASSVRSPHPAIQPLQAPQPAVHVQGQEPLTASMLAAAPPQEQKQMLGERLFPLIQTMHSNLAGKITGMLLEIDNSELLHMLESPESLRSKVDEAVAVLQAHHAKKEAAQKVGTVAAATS
UniProt Q60974: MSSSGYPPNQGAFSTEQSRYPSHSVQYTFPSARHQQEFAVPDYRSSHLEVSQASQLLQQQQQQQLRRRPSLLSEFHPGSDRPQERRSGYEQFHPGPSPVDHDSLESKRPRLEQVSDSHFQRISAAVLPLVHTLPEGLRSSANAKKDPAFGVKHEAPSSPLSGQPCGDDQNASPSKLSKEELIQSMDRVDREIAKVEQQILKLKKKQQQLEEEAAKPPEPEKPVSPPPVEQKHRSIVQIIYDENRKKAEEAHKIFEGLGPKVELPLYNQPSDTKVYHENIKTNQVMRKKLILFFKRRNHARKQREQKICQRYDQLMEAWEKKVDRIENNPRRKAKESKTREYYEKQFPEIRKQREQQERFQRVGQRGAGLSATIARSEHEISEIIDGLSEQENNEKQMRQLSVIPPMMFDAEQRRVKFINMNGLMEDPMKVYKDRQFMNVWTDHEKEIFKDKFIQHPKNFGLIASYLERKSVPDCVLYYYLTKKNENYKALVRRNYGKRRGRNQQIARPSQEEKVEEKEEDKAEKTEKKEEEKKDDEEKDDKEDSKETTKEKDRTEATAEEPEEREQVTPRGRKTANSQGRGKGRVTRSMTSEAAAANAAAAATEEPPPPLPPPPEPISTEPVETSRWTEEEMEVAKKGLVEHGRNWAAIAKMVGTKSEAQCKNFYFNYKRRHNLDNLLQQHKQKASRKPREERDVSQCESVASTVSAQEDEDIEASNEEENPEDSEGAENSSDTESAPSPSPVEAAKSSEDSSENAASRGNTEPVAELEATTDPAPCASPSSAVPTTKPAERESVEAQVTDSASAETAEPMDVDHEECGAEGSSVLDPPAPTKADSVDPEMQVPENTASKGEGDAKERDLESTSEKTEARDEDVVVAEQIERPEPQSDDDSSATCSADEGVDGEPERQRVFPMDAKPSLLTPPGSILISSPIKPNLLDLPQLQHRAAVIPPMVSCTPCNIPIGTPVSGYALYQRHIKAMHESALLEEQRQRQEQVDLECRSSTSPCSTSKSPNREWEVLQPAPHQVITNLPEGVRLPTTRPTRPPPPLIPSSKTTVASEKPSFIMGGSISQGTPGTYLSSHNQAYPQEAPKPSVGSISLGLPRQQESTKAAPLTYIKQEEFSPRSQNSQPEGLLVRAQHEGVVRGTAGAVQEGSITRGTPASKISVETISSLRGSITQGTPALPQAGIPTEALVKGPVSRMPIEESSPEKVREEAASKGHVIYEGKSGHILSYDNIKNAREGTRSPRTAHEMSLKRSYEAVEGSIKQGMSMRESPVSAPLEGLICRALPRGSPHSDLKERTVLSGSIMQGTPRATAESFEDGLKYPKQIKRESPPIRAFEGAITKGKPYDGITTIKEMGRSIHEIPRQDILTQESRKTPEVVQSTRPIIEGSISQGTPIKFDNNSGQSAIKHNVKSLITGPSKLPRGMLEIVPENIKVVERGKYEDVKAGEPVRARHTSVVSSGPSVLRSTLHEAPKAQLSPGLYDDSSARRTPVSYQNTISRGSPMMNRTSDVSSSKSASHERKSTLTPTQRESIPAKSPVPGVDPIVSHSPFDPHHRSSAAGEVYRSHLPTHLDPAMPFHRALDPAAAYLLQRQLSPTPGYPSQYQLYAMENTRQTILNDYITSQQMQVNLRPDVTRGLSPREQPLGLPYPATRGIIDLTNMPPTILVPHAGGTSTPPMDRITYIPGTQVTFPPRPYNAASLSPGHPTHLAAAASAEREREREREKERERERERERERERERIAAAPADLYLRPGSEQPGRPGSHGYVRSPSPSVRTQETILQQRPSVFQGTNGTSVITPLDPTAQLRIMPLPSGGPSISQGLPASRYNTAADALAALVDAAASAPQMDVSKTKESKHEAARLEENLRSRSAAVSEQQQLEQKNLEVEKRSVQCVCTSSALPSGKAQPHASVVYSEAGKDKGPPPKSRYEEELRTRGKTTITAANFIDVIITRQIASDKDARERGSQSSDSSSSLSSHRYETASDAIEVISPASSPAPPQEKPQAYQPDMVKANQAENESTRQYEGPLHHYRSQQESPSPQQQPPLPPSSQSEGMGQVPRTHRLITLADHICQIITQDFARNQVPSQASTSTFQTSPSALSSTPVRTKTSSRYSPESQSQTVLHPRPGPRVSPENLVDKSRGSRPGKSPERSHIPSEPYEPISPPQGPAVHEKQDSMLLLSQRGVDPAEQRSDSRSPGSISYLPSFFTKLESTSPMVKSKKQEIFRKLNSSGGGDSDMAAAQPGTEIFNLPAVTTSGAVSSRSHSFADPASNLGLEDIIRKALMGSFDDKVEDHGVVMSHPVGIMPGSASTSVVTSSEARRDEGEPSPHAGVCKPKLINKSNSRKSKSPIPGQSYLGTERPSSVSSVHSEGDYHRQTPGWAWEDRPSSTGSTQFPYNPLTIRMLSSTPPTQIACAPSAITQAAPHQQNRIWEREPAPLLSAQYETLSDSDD

For test [2], the target named is poly(A)-binding protein cytoplasmic 4 (PABPC4), FLAG-tagged, immunoprecipitated in the reverse co-IP (UniProt Q6PHQ9). In words: co-IP; co-IP of PABPC4 and NCoR1 followed by RNAse treatment.
Test [3] shares this target. In words: co-IP; reverse co-IP: PABPC4 immunoprecipitated (anti-FLAG M2 affinity gel, overnight, 4 °C), samples probed with NCoR1 antibody; lysis in 25 mM Tris pH 7.9, 150 mM NaCl, 1 mM EDTA, 1% Triton X-100; the interaction was lower in cells subjected to glucose deprivation (Fig. S4E).

These are yes or no findings as the source states them, for the method shown. Binding seen in cells or lysates may run through a third protein. Some binding calls cover weakened binding; strength is not graded here.

On to “NCoR1 N-terminal portion (1-1628aa), FLAG-tagged (from UniProt Q60974 1-1628) (domain or fragment)”, for which the binding entry in test [1] is recorded as “binds”. On to “endogenous nuclear receptor corepressor 1 (NCoR1) (from UniProt Q60974 1-2453)”, for which the binding result in test [2] and in test [3] was “binds” each time. Take “nuclear receptor corepressor 1 (NCoR1) full-length, FLAG-tagged, expressed in Hek293T cells (from UniProt Q60974 1-2453)”: in test [1], the binding entry was “binds”.

The record behind these values is article PMC10203745.
